Measured values from paper PMC8571288.
These are yes or no findings as the source states them, for the method shown.

Sequences of proteins named here, by UniProt entry; tags and fusion partners are left off. A change or cut given only in a name is not applied to a line headed by its entry.
UniProt Q2NKJ3: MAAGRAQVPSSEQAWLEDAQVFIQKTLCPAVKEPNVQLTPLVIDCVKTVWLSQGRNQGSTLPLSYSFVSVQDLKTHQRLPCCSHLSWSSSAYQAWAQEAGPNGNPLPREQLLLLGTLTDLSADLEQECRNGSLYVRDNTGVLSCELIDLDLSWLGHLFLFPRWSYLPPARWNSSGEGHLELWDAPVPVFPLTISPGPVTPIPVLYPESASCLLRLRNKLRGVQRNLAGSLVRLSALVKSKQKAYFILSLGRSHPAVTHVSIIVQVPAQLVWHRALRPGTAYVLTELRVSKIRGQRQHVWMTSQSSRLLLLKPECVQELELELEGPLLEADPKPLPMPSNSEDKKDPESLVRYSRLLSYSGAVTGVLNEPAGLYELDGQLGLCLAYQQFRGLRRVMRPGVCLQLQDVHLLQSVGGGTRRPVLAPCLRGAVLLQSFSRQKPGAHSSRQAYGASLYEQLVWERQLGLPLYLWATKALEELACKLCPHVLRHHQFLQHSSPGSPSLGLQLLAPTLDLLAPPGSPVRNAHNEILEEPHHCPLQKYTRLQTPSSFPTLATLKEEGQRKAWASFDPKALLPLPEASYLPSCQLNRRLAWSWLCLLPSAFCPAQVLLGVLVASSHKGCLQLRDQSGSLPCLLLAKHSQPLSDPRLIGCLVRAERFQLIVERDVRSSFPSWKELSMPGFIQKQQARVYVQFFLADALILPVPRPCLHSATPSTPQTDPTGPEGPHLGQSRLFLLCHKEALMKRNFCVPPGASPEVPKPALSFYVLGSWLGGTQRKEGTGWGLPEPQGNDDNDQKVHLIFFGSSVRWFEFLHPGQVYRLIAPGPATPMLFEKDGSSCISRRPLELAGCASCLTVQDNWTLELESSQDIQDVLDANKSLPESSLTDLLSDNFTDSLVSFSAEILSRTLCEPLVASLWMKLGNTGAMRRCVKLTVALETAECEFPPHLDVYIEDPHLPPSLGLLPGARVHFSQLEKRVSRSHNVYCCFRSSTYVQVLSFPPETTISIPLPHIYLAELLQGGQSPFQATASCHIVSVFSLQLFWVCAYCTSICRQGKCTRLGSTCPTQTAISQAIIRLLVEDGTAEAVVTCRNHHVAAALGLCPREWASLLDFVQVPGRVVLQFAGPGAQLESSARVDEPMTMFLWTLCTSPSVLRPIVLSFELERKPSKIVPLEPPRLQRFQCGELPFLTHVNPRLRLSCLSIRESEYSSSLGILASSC
UniProt Q9H668: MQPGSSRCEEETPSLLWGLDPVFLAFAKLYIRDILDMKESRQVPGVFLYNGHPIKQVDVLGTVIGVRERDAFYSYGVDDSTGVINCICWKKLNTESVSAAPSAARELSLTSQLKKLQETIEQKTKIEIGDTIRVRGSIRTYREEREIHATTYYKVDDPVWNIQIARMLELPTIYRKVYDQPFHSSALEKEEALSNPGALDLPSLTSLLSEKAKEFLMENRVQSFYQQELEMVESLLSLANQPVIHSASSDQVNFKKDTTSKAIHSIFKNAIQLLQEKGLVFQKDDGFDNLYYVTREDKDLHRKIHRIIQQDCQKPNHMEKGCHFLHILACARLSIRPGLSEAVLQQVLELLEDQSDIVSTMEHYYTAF
UniProt Q86WV5: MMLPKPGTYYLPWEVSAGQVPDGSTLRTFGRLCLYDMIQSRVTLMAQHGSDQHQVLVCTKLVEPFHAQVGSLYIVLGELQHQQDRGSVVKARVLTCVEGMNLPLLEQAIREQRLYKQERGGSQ
UniProt P0A7G6: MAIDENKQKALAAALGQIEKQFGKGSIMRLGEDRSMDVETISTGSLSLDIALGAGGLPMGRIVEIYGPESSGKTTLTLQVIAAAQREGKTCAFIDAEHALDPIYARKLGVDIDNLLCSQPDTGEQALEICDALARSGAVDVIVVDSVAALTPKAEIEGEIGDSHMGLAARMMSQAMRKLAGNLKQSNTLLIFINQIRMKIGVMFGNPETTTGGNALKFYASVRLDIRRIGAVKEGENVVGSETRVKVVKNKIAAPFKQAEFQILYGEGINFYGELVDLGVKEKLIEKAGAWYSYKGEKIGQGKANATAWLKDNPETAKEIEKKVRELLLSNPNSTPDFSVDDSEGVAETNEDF

Key:
[1] = target: T1, human CST complex (Flag-CTC1-STN1-TEN1-His6) (human) (UniProt Q2NKJ3+Q9H668+Q86WV5); experiment: pull-down; 1 μM CST or CTC1Δ700N-ST (His6 on TEN1) with 1 μM RAD51, RecA or RPA, 20 min 37 °C, buffer D (35 mM Tris-HCl pH 7.5, 10% glycerol, 0.01% Igepal, 1 mM 2-mercaptoethanol) with 5 mM imidazole and 50 mM KCl; for RPA without DNA or with 2 μM 30-nt ssDNA; captured on His-Tag Dynabeads; SDS-PAGE, Coomassie; both purified
[2] = target: T1, human CST complex (Flag-CTC1-STN1-TEN1-His6) (human); experiment: pull-down; 0.25 μM CST (Flag on CTC1) with 0.25 μM His-tagged RecA, 20 min 37 °C, buffer D with 50 mM KCl; captured on anti-FLAG M2 affinity gel, eluted with 3x Flag peptide; immunoblot with anti-His; both purified

For “E. coli RecA (from UniProt P0A7G6 1-353)”, the binding [1] was “no binding (tested: 1 μM)”.
“human Replication protein A (RPA), recombinant heterotrimer (from UniProt P27694 1-616; P15927 1-270; P35244 1-121) (complex)” was tested, and the binding [1] was “no binding (tested: 1 μM)”.
With “His-tagged E. coli RecA (from UniProt P0A7G6 1-353)” the binding [2] was “no binding (tested: 0.25 μM)”.
